# Screen size: about 330,000 compounds; about 7,700 (2.3%) were called active. Inconclusive results, whose numbers are uncertain, are shown with a selection of clear calls. The call rests on the fitted dose curve; in most records, active means well fitted inhibition curve with a large enough effect; inconclusive means small, poorly fitted or top-dose-only effect, or effect the other way; inactive means flat fitted curve, though single readings scatter. Potencies of inconclusive entries are doubtful fits and often do not repeat.
# Assay: qHTS screen for small molecules that inhibit ELG1-dependent DNA repair in human embryonic kidney (HEK293T) cells expressing luciferase-tagged ELG1; further: nearly all actives have a fitted effect of over 55% in size
# Settings: HEK293T ELG1-luciferase reporter, luminescence, 16 h, DNA damage induced by 5-fluorouridine; series mostly up to 46.1 µM
# Procedure, shortened: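 Reporter activity after DNA damage by 5-fluorouridine is monitored. Compound-treated cells incubate 16 hr at 37 °C, then ONE-Glo is added for 30 min before luminescence reading.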
# Potency means the concentration at half of the fitted maximal effect.
row,SMILES,Potency
1,CSc1ccc(-c2c(C#N)c(N)nc3c2c(C)nn3-c2ccccc2)cc1,"inconclusive: 18.4 µM [inhibitor, partial curve]"
2,O=C(CSc1nc2ccccc2o1)NC1CCS(=O)(=O)C1 (stereo not given),inactive
3,c1ccc2c(c1)CCN(c1ncnc3nc[nH]c13)C2,inactive
4,Cc1cccc(-n2c(C)cc(/C=C3\NC(=O)NC3=O)c2C)c1,"inconclusive: 29.1 µM [inhibitor, single point]"
5,CCN(CC)C(=O)[C@H]1C[C@H](CC(=O)NCCC2=CCCCC2)C(=O)N2CCc3c([nH]c4ccc(Cl)cc34)[C@]12C,"inconclusive: 29.1 µM [inhibitor, single point]"
6,O=C1N=c2ccc(Br)cc2=C1c1sc(=S)n(NS(=O)(=O)c2ccccc2)c1O,inactive
7,C=CCN(C(=O)CSc1nnnn1C)c1nc(-c2ccccc2)cs1,"inconclusive: 14.6 µM [activator, partial curve]"
8,Cc1ccc(C)c(NC(=O)CN(C)C(=O)CN2C(=O)NC3(CCc4ccccc43)C2=O)c1 (stereo not given),inactive
9,O=C(Cn1ccc2ccccc2c1=O)NCC(=O)N1CCN(c2ccc(F)cc2)CC1,inactive
10,Cc1ccc(CNS(=O)(=O)c2ccc3c(c2)N(C)CCO3)cc1,"inconclusive: 10.3 µM [inhibitor, partial curve]"
11,CCC(=O)c1ccc(OCCN2CCOCC2)cc1,"inconclusive: 23.1 µM [activator, single point]"
12,O=C(CSc1nnc(-c2ccc(Cl)cc2Cl)n1C1CCCCC1)N1CCCC1,inactive
13,COc1ccc(S(=O)(=O)N2CCCC(C(=O)Nc3cccc(C(C)=O)c3)C2)cc1 (stereo not given),"inconclusive: 25.9 µM [inhibitor, single point]"
14,CC(C)(C)c1cccc(P(=O)(c2ccccc2)c2ccccc2)c1O,inactive
15,Cc1c(-c2ccccc2)oc2c(C(=O)N3CCN(c4ccccc4F)CC3)cccc2c1=O,"inconclusive: 14.6 µM [inhibitor, single point]"
16,CCN(CC)S(=O)(=O)c1cccc(C(=O)OCC(=O)c2ccc3c(c2)NC(=O)CO3)c1,"inconclusive: 16.4 µM [inhibitor, partial curve, poor fit]"
17,COCC(=O)Nc1nc2ccc(S(C)(=O)=O)cc2s1,"inconclusive: 8.91 µM [activator, partial curve, poor fit]"
18,O=C(COc1ccccc1Br)NCc1ccccn1,"inconclusive: 20.6 µM [activator, partial curve]"
19,CCOC(=O)N1CCN(C(=O)c2ccccc2NC(=O)c2ccc(C(C)(C)C)cc2)CC1,inactive
20,CCOc1ccc(C(=O)Nc2cc(C)on2)cc1,"inconclusive: 3.26 µM [activator, full curve]"

# As entered above:
# In Potency, COCC(=O)Nc1nc2ccc(S(C)(=O)=O)cc2s1 is listed with inconclusive: 8.91 µM [activator, partial curve, poor fit]
# In Potency, C=CCN(C(=O)CSc1nnnn1C)c1nc(-c2ccccc2)cs1 is listed with inconclusive: 14.6 µM [activator, partial curve]

# Source: PubChem BioAssay AID504467 (National Center for Advancing Translational Sciences (NCATS), 2011)
